# Data: the supplement of paper PMC10727501
# The list shows a part of the results. This data set is noisy: repeats of one test often differ as much as different tests do.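 Free-swimming zebrafish larvae were assessed for O-bend response probability to dark flashes (naive: first five; training: remaining flashes across four 60-flash blocks; test: later 60-flash block) and for OMR turning toward alternating leftward/rightward LED motion. Six treated larvae were compared against sixty 0.1% DMSO controls; hits required |SSMD|≥2.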 Peptide text beside a SMILES is read from it. * marks the point of attachment. Cbz = O=C(OCc1ccccc1)*
# Test system: Danio rerio larvae (5 dpf, TLF)
# Assay: Prob-Test (SSMD vs DMSO vehicle); higher = higher than vehicle (e.g. higher dark-flash O-bend response probability, or better optomotor performance)
# Settings: 10 µM; pre-incubation: 30-90 min
row,Compound,Prob-Test
1,CC1COc2c(N3CCN(C)CC3)c(F)cc3c(=O)c(C(=O)O)cn1c23 (centres undefined) [Ofloxacin (Floxin)],-0.177
2,O=C(/C=C/c1ccc(CN(CCO)CCc2c[nH]c3ccccc23)cc1)NO [LAQ824 (Dacinostat)],0.485
3,Cn1cnc([N+](=O)[O-])c1Sc1ncnc2nc[nH]c12 [Azathioprine],-0.225
4,C/C(=N\NC(=O)c1cccc(S(=O)(=O)N2CCOCC2)c1)c1cc(Cl)ccc1O,-0.511
5,CC1(C)[C@@H](O[C@H]2O[C@H](C(=O)O)[C@@H](O)[C@H](O)[C@@H]2O[C@@H]2O[C@H](C(=O)O)[C@@H](O)[C@H](O)[C@@H]2O)CC[C@@]2(C)[C@H]1CC[C@]1(C)[C@H]2C(=O)C=C2[C@H]3C[C@@](C)(C(=O)O)CC[C@]3(C)CC[C@]21C [Glycyrrhizic Acid],0.403
6,Cc1ccccc1C(=O)Nc1ccc(C(=O)N2CCCC(O)c3cc(Cl)ccc32)c(C)c1 (centres undefined) [Tolvaptan],0.433
7,CC(O)C1C(=O)N2C(C(=O)O)=C(SC3CNC(C(=O)N(C)C)C3)C(C)C12 (centres undefined) [Meropenem],0.709
8,CC(C)(C)NCC(O)c1ccc(O)c(CO)c1.O=S(=O)(O)O (centres undefined) [Salbutamol sulfate (Albuterol)],0.281
9,O=C1c2c(O)cc(O)cc2O[C@H](c2cc(O)c(O)c(O)c2)[C@H]1O [Dihydromyricetin],0.279
10,O=C(c1cncc(Br)c1)N1CCC(N2CCCC2)CC1,-0.121
11,NS(=O)(=O)C#Cc1ccccc1 [Pifithrin-Î¼],-0.527
12,CN(C)C(=O)[C@H](O)[C@H](Cc1ccccc1)NC(=O)c1cc2cc(Cl)ccc2[nH]1,-0.591
13,Cl.O=C1CC2(CCCC2)CC(=O)N1CCCCN1CCN(c2ncccn2)CC1 [Buspirone HCl],-1.17
14,Cc1ccc(C(=O)N(CCCN)[C@@H](c2nc3cc(Cl)ccc3c(=O)n2Cc2ccccc2)C(C)C)cc1,-0.65
15,NC(=O)[C@@H](CCC(F)(F)F)N(Cc1ccc(-c2ncon2)cc1F)S(=O)(=O)c1ccc(Cl)cc1,-1.74
16,NC(=O)N1c2ccccc2C=Cc2ccccc21 [Carbamazepine],-0.169
17,O=C(Nc1ccccc1)c1cc([N+](=O)[O-])ccc1Cl,-0.0745

# Of the compounds above, these have four or more nitrogen atoms:
row,Compound,Prob-Test
3,Cn1cnc([N+](=O)[O-])c1Sc1ncnc2nc[nH]c12 [Azathioprine],-0.225
13,Cl.O=C1CC2(CCCC2)CC(=O)N1CCCCN1CCN(c2ncccn2)CC1 [Buspirone HCl],-1.17
14,Cc1ccc(C(=O)N(CCCN)[C@@H](c2nc3cc(Cl)ccc3c(=O)n2Cc2ccccc2)C(C)C)cc1,-0.65
15,NC(=O)[C@@H](CCC(F)(F)F)N(Cc1ccc(-c2ncon2)cc1F)S(=O)(=O)c1ccc(Cl)cc1,-1.74

# Following part

row,Compound,Prob-Test
1,CC1=C(C(=O)Nc2cc3cn[nH]c3cc2F)C(c2ccc(C(F)(F)F)cc2)CC(=O)N1 (centres undefined),0.00128
2,CC(C)(C)NS(=O)(=O)c1cncc(-c2cc(F)c3nc(N)nn3c2)c1,0.0891
3,OC[C@@H](O)[C@@H](O)[C@H](O)[C@H](O)CO [D-Mannitol],-0.176
4,OCC(O)CN1CCN(c2ccccc2)CC1 (centres undefined) [Dropropizine],-0.217
5,O=C1Nc2cc(Br)ccc2/C1=C1/Nc2ccccc2/C1=N/O,-1.04
6,C#Cc1cccc(Nc2ncnc3cc(OCCOC)c(OCCO)cc23)c1.Cl,-0.215
7,CN1CCC(OC(c2ccccc2)c2ccccc2)CC1.Cl [Diphenylpyraline HCl],1.12
8,Cc1onc(-c2ccccc2)c1C(=O)N[C@@H]1C(=O)N2[C@@H]1SC(C)(C)[C@H]2C(=O)[O-].O.[Na+] [Oxacillin sodium monohydrate],0.876
9,c1cn2cc(-c3ccc4cn[nH]c4c3)nc(Nc3ccc(N4CCOCC4)cc3)c2n1,-0.225
10,COc1cc(C)c(/C=C/C(C)=C/C=C/C(C)=C/C(=O)O)c(C)c1C [Acitretin],-1.01
11,C[C@]12C=CC(=O)C=C1CC[C@H]1[C@@H]3C[C@@H](O)[C@@](O)(C(=O)CO)[C@@]3(C)C[C@@H](O)[C@]12F [Triamcinolone],0.907
12,CN(C)CCCN1c2ccccc2Sc2ccc(Cl)cc21.Cl [Chlorpromazine HCl],-1.76
13,Nc1nc(N)c(N=O)c(OCC2CCCCC2)n1,0.0452
14,O=C([O-])c1cc(/N=N/c2ccc(O)c(C(=O)[O-])c2)ccc1O.[Na+].[Na+] [Olsalazine Sodium],-0.209
15,C#C[C@@]1(O)CC[C@H]2[C@@H]3CCC4=CC(=O)CC[C@@H]4[C@@H]3CC[C@@]21CC [Levonorgestrel],-0.643
16,CCCCC1=NC2(CCCC2)C(=O)N1Cc1ccc(-c2ccccc2-c2nn[nH]n2)cc1 [Irbesartan],0.173

# Test system: Danio rerio larvae (5 dpf, TLF)
# Assay: Prob-Naive (SSMD vs DMSO vehicle); higher = higher than vehicle (e.g. higher dark-flash O-bend response probability, or better optomotor performance)
# Settings: 10 µM; pre-incubation: 30-90 min
row,Compound,Prob-Naive
1,Cl.c1ccc2c(CC3=NCCN3)cccc2c1 [Naphazoline HCl],-0.197
2,CC(C)C[C@@H](C=O)NC(=O)[C@H](CC(C)C)NC(=O)[C@H](CC(C)C)NC(=O)OCc1ccccc1 (Cbz-Leu-Leu-Leu-aldehyde),-0.301
3,CN[C@H](CC(C)C)C(=O)N[C@H]1C(=O)N[C@@H](CC(N)=O)C(=O)N[C@H]2C(=O)N[C@H]3C(=O)N[C@@H](C(=O)N[C@H](C(=O)O)c4cc(O)cc(O)c4-c4cc3ccc4O)[C@H](O)c3ccc(c(Cl)c3)Oc3cc2cc(c3O[C@H]2O[C@H](CO)[C@@H](O)[C@H](O)[C@H]2O[C@H]2C[C@@](C)(N)[C@H](O)[C@H](C)O2)Oc2ccc(cc2Cl)[C@H]1O.Cl [Vancomycin HCl (Vancocin)],0.402
4,COc1ccccc1N1CCN(CC(O)COc2cccc3ccccc23)CC1.Cl.Cl (centres undefined) [Naftopidil DiHCl],-4.32
5,C/C=C1/[C@H]2C=C(C)C[C@]1(N)c1ccc(=O)[nH]c1C2 [(-)-Huperzine A (HupA)],-0.296
6,C=CC[C@@H]1/C=C(\C)C[C@H](C)C[C@H](OC)[C@@H]2O[C@@](O)(C(=O)C(=O)N3CCCC[C@H]3C(=O)O[C@H](/C(C)=C/[C@@H]3CC[C@H](O)[C@H](OC)C3)[C@H](C)[C@@H](O)CC1=O)[C@H](C)C[C@@H]2OC [Tacrolimus (FK506)],-0.116
7,COc1cc(C(=O)NS(=O)(=O)c2ccccc2C)ccc1Cc1cn(C)c2ccc(NC(=O)OC3CCCC3)cc12 [Zafirlukast],0.454
8,CC1COc2c(N3CCN(C)CC3)c(F)cc3c(=O)c(C(=O)O)cn1c23 (centres undefined) [Ofloxacin (Floxin)],0.134
9,O=C(/C=C/c1ccc(CN(CCO)CCc2c[nH]c3ccccc23)cc1)NO [LAQ824 (Dacinostat)],0.233
10,Cn1cnc([N+](=O)[O-])c1Sc1ncnc2nc[nH]c12 [Azathioprine],0.454
11,C/C(=N\NC(=O)c1cccc(S(=O)(=O)N2CCOCC2)c1)c1cc(Cl)ccc1O,-0.268
12,CC1(C)[C@@H](O[C@H]2O[C@H](C(=O)O)[C@@H](O)[C@H](O)[C@@H]2O[C@@H]2O[C@H](C(=O)O)[C@@H](O)[C@H](O)[C@@H]2O)CC[C@@]2(C)[C@H]1CC[C@]1(C)[C@H]2C(=O)C=C2[C@H]3C[C@@](C)(C(=O)O)CC[C@]3(C)CC[C@]21C [Glycyrrhizic Acid],-0.0681
13,Cc1ccccc1C(=O)Nc1ccc(C(=O)N2CCCC(O)c3cc(Cl)ccc32)c(C)c1 (centres undefined) [Tolvaptan],0.0551
14,CC(O)C1C(=O)N2C(C(=O)O)=C(SC3CNC(C(=O)N(C)C)C3)C(C)C12 (centres undefined) [Meropenem],0.549
15,CC(C)(C)NCC(O)c1ccc(O)c(CO)c1.O=S(=O)(O)O (centres undefined) [Salbutamol sulfate (Albuterol)],-0.213
16,O=C1c2c(O)cc(O)cc2O[C@H](c2cc(O)c(O)c(O)c2)[C@H]1O [Dihydromyricetin],0.208

row,Compound,Prob-Naive
1,O=C(c1cncc(Br)c1)N1CCC(N2CCCC2)CC1,-0.22
2,NS(=O)(=O)C#Cc1ccccc1 [Pifithrin-Î¼],-0.528
3,CN(C)C(=O)[C@H](O)[C@H](Cc1ccccc1)NC(=O)c1cc2cc(Cl)ccc2[nH]1,-0.144
4,Cl.O=C1CC2(CCCC2)CC(=O)N1CCCCN1CCN(c2ncccn2)CC1 [Buspirone HCl],-0.0588
5,Cc1ccc(C(=O)N(CCCN)[C@@H](c2nc3cc(Cl)ccc3c(=O)n2Cc2ccccc2)C(C)C)cc1,0.214
6,NC(=O)[C@@H](CCC(F)(F)F)N(Cc1ccc(-c2ncon2)cc1F)S(=O)(=O)c1ccc(Cl)cc1,-2.04
7,NC(=O)N1c2ccccc2C=Cc2ccccc21 [Carbamazepine],0.0613
8,O=C(Nc1ccccc1)c1cc([N+](=O)[O-])ccc1Cl,-0.554
9,CC1=C(C(=O)Nc2cc3cn[nH]c3cc2F)C(c2ccc(C(F)(F)F)cc2)CC(=O)N1 (centres undefined),-0.043
10,CC(C)(C)NS(=O)(=O)c1cncc(-c2cc(F)c3nc(N)nn3c2)c1,0.538
11,OC[C@@H](O)[C@@H](O)[C@H](O)[C@H](O)CO [D-Mannitol],0.208
12,OCC(O)CN1CCN(c2ccccc2)CC1 (centres undefined) [Dropropizine],0.355
13,O=C1Nc2cc(Br)ccc2/C1=C1/Nc2ccccc2/C1=N/O,-0.842
14,C#Cc1cccc(Nc2ncnc3cc(OCCOC)c(OCCO)cc23)c1.Cl,-0.283
15,CN1CCC(OC(c2ccccc2)c2ccccc2)CC1.Cl [Diphenylpyraline HCl],0.0876

# Reformatted tab-delimited: part of the list above
row	Compound	Prob-Naive
2	NS(=O)(=O)C#Cc1ccccc1 [Pifithrin-Î¼]	-0.528
4	Cl.O=C1CC2(CCCC2)CC(=O)N1CCCCN1CCN(c2ncccn2)CC1 [Buspirone HCl]	-0.0588
